{"source": "PubChem BioAssay AID652272 (Drosophila RNAi Screening Center, 2013)", "screen": "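Genes whose knock-down decreases or increases Hedgehog reporter output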 (primary screen)", "cell system": "Drosophila clone 8 (Cl8) cells", "reagents": "long dsRNA against Drosophila genes", "detection": "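Firefly light from a Hedgehog-responsive ptc promoter reporter and Renilla reference light, both read on a plate reader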", "scale": "firefly Hh reporter signal: higher = more ptc reporter light; Renilla reference signal: higher = more Renilla control light", "call rule": "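Called a hit if the two-replicate mean z-score lies below -2 or above +3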", "calls": "active = hit: reporter lowered or raised; inactive = not a hit", "note": "The screen tested about 21,000 reagents; this is an unselected part of those with a known target gene and a result. Over the whole deposit, 503 (2.4%) are marked active. 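Raw plate light values, not normalised; calls rest on replicate z-scores that were not deposited; hits include reporter decreases as well as increases.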 Unmarked entries are inactive. Reagent sequences are not shown. Not given: the amount of reagent, the time to read-out."}
{"gene knocked down": "dbr (debra)", "DRSC id": "DRSC00274", "firefly Hh reporter signal, replicate 1": 89988, "firefly Hh reporter signal, replicate 2": 61706, "Renilla reference signal, replicate 1": 3720, "Renilla reference signal, replicate 2": 3014}
{"gene knocked down": "Srrm234 (Serine-arginine repetitive matrix 2/3/4)", "DRSC id": "DRSC07955", "firefly Hh reporter signal, replicate 1": 97763, "firefly Hh reporter signal, replicate 2": 1.82e5, "Renilla reference signal, replicate 1": 3211, "Renilla reference signal, replicate 2": 8220}
{"gene knocked down": "Srrm234 (Serine-arginine repetitive matrix 2/3/4)", "DRSC id": "DRSC08606", "firefly Hh reporter signal, replicate 1": 65171, "firefly Hh reporter signal, replicate 2": 61484, "Renilla reference signal, replicate 1": 3024, "Renilla reference signal, replicate 2": 2167}
{"gene knocked down": "dmrt93B (doublesex-Mab related 93B)", "DRSC id": "DRSC15865", "firefly Hh reporter signal, replicate 1": 6.50e5, "firefly Hh reporter signal, replicate 2": 99660, "Renilla reference signal, replicate 1": 31536, "Renilla reference signal, replicate 2": 2784}
{"gene knocked down": "CG11629", "DRSC id": "DRSC03695", "firefly Hh reporter signal, replicate 1": 75173, "firefly Hh reporter signal, replicate 2": 37840, "Renilla reference signal, replicate 1": 2058, "Renilla reference signal, replicate 2": 3923}
{"gene knocked down": "Gr10b (Gustatory receptor 10b)", "DRSC id": "DRSC19477", "firefly Hh reporter signal, replicate 1": 92970, "firefly Hh reporter signal, replicate 2": 2.16e5, "Renilla reference signal, replicate 1": 3162, "Renilla reference signal, replicate 2": 8269}
{"gene knocked down": "CG17999", "DRSC id": "DRSC04300", "firefly Hh reporter signal, replicate 1": 1.20e5, "firefly Hh reporter signal, replicate 2": 50962, "Renilla reference signal, replicate 1": 4386, "Renilla reference signal, replicate 2": 1874}
{"gene knocked down": "CG31407", "DRSC id": "DRSC12761", "firefly Hh reporter signal, replicate 1": 1.56e5, "Renilla reference signal, replicate 1": 3371}
{"gene knocked down": "CG15200", "DRSC id": "DRSC19647", "firefly Hh reporter signal, replicate 1": 78714, "firefly Hh reporter signal, replicate 2": 1.63e5, "Renilla reference signal, replicate 1": 2208, "Renilla reference signal, replicate 2": 6188}
{"gene knocked down": "CG15533", "DRSC id": "DRSC15069", "firefly Hh reporter signal, replicate 1": 61067, "firefly Hh reporter signal, replicate 2": 89314, "Renilla reference signal, replicate 1": 1254, "Renilla reference signal, replicate 2": 2192}
{"gene knocked down": "Fs(2)Ket (Female sterile (2) Ketel)", "DRSC id": "DRSC03328", "firefly Hh reporter signal, replicate 1": 52775, "firefly Hh reporter signal, replicate 2": 26944, "Renilla reference signal, replicate 1": 2600, "Renilla reference signal, replicate 2": 1478}
{"gene knocked down": "CG12024", "DRSC id": "DRSC08229", "firefly Hh reporter signal, replicate 1": 1.23e5, "firefly Hh reporter signal, replicate 2": 92601, "Renilla reference signal, replicate 1": 5365, "Renilla reference signal, replicate 2": 3984}
{"gene knocked down": "mbm (mushroom body miniature)", "DRSC id": "DRSC00319", "firefly Hh reporter signal, replicate 1": 1.07e5, "firefly Hh reporter signal, replicate 2": 90152, "Renilla reference signal, replicate 1": 4402, "Renilla reference signal, replicate 2": 3571}
{"gene knocked down": "eEF1alpha1 (eukaryotic translation elongation factor 1 alpha 1)", "DRSC id": "DRSC07421", "firefly Hh reporter signal, replicate 1": 53945, "firefly Hh reporter signal, replicate 2": 41184, "Renilla reference signal, replicate 1": 1133, "Renilla reference signal, replicate 2": 3091}
{"gene knocked down": "CG18304", "DRSC id": "DRSC02664", "firefly Hh reporter signal, replicate 1": 1.35e5, "firefly Hh reporter signal, replicate 2": 57660, "Renilla reference signal, replicate 1": 3145, "Renilla reference signal, replicate 2": 6358}
{"gene knocked down": "CG31960", "DRSC id": "DRSC00281", "firefly Hh reporter signal, replicate 1": 1.61e5, "firefly Hh reporter signal, replicate 2": 62160, "Renilla reference signal, replicate 1": 3463, "Renilla reference signal, replicate 2": 5169}
{"gene knocked down": "CG9265", "DRSC id": "DRSC03178", "firefly Hh reporter signal, replicate 1": 91384, "firefly Hh reporter signal, replicate 2": 72387, "Renilla reference signal, replicate 1": 2541, "Renilla reference signal, replicate 2": 6640}
{"gene knocked down": "CG9265", "DRSC id": "DRSC03179", "firefly Hh reporter signal, replicate 1": 98096, "firefly Hh reporter signal, replicate 2": 50995, "Renilla reference signal, replicate 1": 2615, "Renilla reference signal, replicate 2": 4485}
{"gene knocked down": "CG13699", "DRSC id": "DRSC10048", "firefly Hh reporter signal, replicate 1": 1.41e5, "Renilla reference signal, replicate 1": 4114, "Renilla reference signal, replicate 2": 3895}
{"gene knocked down": "dlt (discs lost)", "DRSC id": "DRSC08705", "firefly Hh reporter signal, replicate 1": 55977, "firefly Hh reporter signal, replicate 2": 37670, "Renilla reference signal, replicate 1": 2518, "Renilla reference signal, replicate 2": 2195}
{"gene knocked down": "CG32354", "DRSC id": "DRSC10763", "firefly Hh reporter signal, replicate 1": 68468, "firefly Hh reporter signal, replicate 2": 52544, "Renilla reference signal, replicate 1": 3346, "Renilla reference signal, replicate 2": 2298}
{"gene knocked down": "CG32354", "DRSC id": "DRSC10775", "firefly Hh reporter signal, replicate 1": 84695, "firefly Hh reporter signal, replicate 2": 5.96e5, "firefly Hh reporter signal, replicate 3": 88640, "Renilla reference signal, replicate 1": 7356, "Renilla reference signal, replicate 2": 2650}
{"gene knocked down": "CG10947", "DRSC id": "DRSC02111", "firefly Hh reporter signal, replicate 1": 76288, "firefly Hh reporter signal, replicate 2": 50204, "Renilla reference signal, replicate 1": 3554, "Renilla reference signal, replicate 2": 2418}
{"gene knocked down": "lola (longitudinals lacking)", "DRSC id": "DRSC05220", "firefly Hh reporter signal, replicate 1": 1.13e5, "firefly Hh reporter signal, replicate 2": 2.10e5, "Renilla reference signal, replicate 1": 3010, "Renilla reference signal, replicate 2": 8560}
{"gene knocked down": "lola (longitudinals lacking)", "DRSC id": "DRSC05221", "firefly Hh reporter signal, replicate 1": 1.55e5, "firefly Hh reporter signal, replicate 2": 3.16e5, "Renilla reference signal, replicate 1": 4148, "Renilla reference signal, replicate 2": 12425}
{"gene knocked down": "lola (longitudinals lacking)", "DRSC id": "DRSC05222", "firefly Hh reporter signal, replicate 1": 1.27e5, "firefly Hh reporter signal, replicate 2": 2.90e5, "Renilla reference signal, replicate 1": 3552, "Renilla reference signal, replicate 2": 10582}
{"gene knocked down": "lola (longitudinals lacking)", "DRSC id": "DRSC05223", "firefly Hh reporter signal, replicate 1": 1.26e5, "firefly Hh reporter signal, replicate 2": 1.24e5, "Renilla reference signal, replicate 1": 2869, "Renilla reference signal, replicate 2": 5004}
{"gene knocked down": "lola (longitudinals lacking)", "DRSC id": "DRSC05224", "firefly Hh reporter signal, replicate 1": 1.93e5, "firefly Hh reporter signal, replicate 2": 2.25e5, "Renilla reference signal, replicate 1": 4581, "Renilla reference signal, replicate 2": 8736}
{"gene knocked down": "lola (longitudinals lacking)", "DRSC id": "DRSC06738", "firefly Hh reporter signal, replicate 1": 34816, "firefly Hh reporter signal, replicate 2": 16982, "Renilla reference signal, replicate 1": 1808, "Renilla reference signal, replicate 2": 898}
{"gene knocked down": "lola (longitudinals lacking)", "DRSC id": "DRSC06739", "firefly Hh reporter signal, replicate 1": 75447, "firefly Hh reporter signal, replicate 2": 39235, "Renilla reference signal, replicate 1": 2161, "Renilla reference signal, replicate 2": 3497}
{"gene knocked down": "lola (longitudinals lacking)", "DRSC id": "DRSC06740", "firefly Hh reporter signal, replicate 1": 64849, "firefly Hh reporter signal, replicate 2": 34676, "Renilla reference signal, replicate 1": 2378, "Renilla reference signal, replicate 2": 1245}
{"gene knocked down": "lola (longitudinals lacking)", "DRSC id": "DRSC06741", "firefly Hh reporter signal, replicate 1": 1.11e5, "firefly Hh reporter signal, replicate 2": 47795, "Renilla reference signal, replicate 1": 2952, "Renilla reference signal, replicate 2": 4961}
{"gene knocked down": "lola (longitudinals lacking)", "DRSC id": "DRSC06742", "firefly Hh reporter signal, replicate 1": 73020, "firefly Hh reporter signal, replicate 2": 28506, "Renilla reference signal, replicate 1": 1844, "Renilla reference signal, replicate 2": 1739}
{"gene knocked down": "lola (longitudinals lacking)", "DRSC id": "DRSC07646", "firefly Hh reporter signal, replicate 1": 1.18e5, "firefly Hh reporter signal, replicate 2": 81817, "Renilla reference signal, replicate 1": 4631, "Renilla reference signal, replicate 2": 3293}
{"gene knocked down": "lola (longitudinals lacking)", "DRSC id": "DRSC07647", "firefly Hh reporter signal, replicate 1": 1.22e5, "firefly Hh reporter signal, replicate 2": 81148, "Renilla reference signal, replicate 1": 3056, "Renilla reference signal, replicate 2": 5819}
